Test results published in patent US20110118172 (published 2011).

Key:
[1] = general procedure: Fmoc solid-phase peptide synthesis; Rink Amide MBHA resin (0.4 mmol/g); DIPCDI/HOAt; details: whole synthesis
peptide synthesis = details: coupling step

Substance: des(1)-amidino-[D-Tyr2,Hyp3,Thr5,AzaGly7,Arg(Me)9,Trp10]MS10
- isolated mass ([1]; scale 0.02 mmol): 1.9 mg

Substance: des(1)-Ac-[D-Tyr2,Hyp3,Alb4,Thr5,D-Cha6,Gly7ψ((E)CH═CH)Leu8,Arg(Me)9,Trp10]MS10
- isolated mass ([1]; scale 0.04 mmol): 4.5 mg

Substance: des(1)-Ac-[D-Tyr2,Hyp3,Thr5,Cha6,AzaGly7,Arg(Me)9,Trp10]MS10
- isolated mass ([1]; scale 0.02 mmol): 7.4 mg

Substance: des(1)-Ac-[D-Tyr2,Hyp3,Thr5,Phe6%(CSNH)Gly7,Arg(Me)9,Trp10]MS10
- isolated mass ([1]; scale 0.03 mmol): 3.7 mg

Substance: Z-Phe-ψ(NHCO)-Gly-Leu-Arg(Boc2,Me)-Trp-NH2
- step yield (peptide synthesis): 66.6%
